No constants are given. Whether binding was seen depends on the method and setting. Some binding calls cover weakened binding; strength is not graded here.
What was measured:
[1] = target: S. cerevisiae Rad51 (1-250) + H. sapiens Rad51 (190-339) (S. cerevisiae; H. sapiens) (UniProt P25454); test: yeast two-hybrid, RAD51 hybrid construct
[2] = target: S. cerevisiae Rad51 (1-226) + H. sapiens Rad51 (168-339) (S. cerevisiae; H. sapiens) (UniProt P25454); test: yeast two-hybrid, RAD51 hybrid construct

How did the binding [1] turn out when KRRRRRRRKRLGVRLRVSRML [compound 5 peptide sequence (SEQ ID NO.:5)] was run?
The binding was “binds”.

And the binding [2]?
Its binding is “binds”.

— patent publication US20170368132A1 (published 2017)
